Laboratory results published in the supplement of paper PMC12823440, “Inhibitors supercharge kinase turnover through native proteolytic circuits” (Nature, 2025).
The list shows a part of the results. Hit calls seldom repeat between salt and free forms of one compound.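 Kinases, fused to nanoluciferase, were expressed in K562 cells; luminescence was measured every 4 h from 2 to 18 h as percent of control (DMSO = 100%, positive control = 0%). A time point is decreased if signal falls significantly (2 sigma). Hits were called by the authors by a rule that is not shown; the count of time points alone does not decide it.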

By UniProt entry, the sequences of proteins in these tests, tags left out. Where a name states a change or a piece, a line headed by the entry shows the natural chain unless it says otherwise.
UniProt Q9UQM7, whole entry: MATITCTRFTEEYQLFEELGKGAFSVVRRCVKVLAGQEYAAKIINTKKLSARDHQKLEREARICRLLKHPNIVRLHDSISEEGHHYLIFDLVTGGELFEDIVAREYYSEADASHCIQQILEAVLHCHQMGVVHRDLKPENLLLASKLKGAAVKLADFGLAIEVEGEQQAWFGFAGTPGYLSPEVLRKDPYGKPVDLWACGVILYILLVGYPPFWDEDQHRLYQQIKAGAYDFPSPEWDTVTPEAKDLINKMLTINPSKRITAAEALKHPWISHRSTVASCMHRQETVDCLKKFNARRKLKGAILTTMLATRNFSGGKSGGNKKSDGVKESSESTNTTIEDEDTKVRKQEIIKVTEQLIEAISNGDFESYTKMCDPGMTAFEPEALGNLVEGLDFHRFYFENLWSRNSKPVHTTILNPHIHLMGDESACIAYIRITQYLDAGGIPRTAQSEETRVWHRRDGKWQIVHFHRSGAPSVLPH
UniProt Q15131: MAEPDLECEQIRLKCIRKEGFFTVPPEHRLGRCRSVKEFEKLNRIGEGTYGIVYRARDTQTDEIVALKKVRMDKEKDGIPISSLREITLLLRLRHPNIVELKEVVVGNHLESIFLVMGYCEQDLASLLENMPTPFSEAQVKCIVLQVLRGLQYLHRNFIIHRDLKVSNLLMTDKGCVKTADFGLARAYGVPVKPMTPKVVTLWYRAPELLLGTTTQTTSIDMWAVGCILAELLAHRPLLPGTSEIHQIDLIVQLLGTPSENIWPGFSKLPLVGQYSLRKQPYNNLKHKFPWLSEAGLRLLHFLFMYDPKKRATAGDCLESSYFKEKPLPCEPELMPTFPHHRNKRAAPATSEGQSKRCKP
UniProt Q00526: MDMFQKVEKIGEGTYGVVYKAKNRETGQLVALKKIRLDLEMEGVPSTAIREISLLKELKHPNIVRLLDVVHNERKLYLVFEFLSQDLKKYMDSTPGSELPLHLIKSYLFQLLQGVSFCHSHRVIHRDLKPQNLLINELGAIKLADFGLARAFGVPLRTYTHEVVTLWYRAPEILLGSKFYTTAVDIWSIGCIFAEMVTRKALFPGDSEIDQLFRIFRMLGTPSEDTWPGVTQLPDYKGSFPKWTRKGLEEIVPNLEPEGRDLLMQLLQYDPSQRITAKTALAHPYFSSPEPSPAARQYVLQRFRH
UniProt Q00535, whole entry, looked up: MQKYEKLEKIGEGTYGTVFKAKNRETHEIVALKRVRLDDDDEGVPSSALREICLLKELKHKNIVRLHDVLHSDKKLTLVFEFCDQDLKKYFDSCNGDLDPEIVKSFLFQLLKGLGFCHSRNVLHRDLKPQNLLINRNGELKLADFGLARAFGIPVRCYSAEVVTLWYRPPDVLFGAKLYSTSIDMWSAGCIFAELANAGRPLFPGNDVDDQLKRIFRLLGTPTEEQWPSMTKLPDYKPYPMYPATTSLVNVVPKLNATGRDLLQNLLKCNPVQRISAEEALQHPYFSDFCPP
UniProt P07333, whole entry: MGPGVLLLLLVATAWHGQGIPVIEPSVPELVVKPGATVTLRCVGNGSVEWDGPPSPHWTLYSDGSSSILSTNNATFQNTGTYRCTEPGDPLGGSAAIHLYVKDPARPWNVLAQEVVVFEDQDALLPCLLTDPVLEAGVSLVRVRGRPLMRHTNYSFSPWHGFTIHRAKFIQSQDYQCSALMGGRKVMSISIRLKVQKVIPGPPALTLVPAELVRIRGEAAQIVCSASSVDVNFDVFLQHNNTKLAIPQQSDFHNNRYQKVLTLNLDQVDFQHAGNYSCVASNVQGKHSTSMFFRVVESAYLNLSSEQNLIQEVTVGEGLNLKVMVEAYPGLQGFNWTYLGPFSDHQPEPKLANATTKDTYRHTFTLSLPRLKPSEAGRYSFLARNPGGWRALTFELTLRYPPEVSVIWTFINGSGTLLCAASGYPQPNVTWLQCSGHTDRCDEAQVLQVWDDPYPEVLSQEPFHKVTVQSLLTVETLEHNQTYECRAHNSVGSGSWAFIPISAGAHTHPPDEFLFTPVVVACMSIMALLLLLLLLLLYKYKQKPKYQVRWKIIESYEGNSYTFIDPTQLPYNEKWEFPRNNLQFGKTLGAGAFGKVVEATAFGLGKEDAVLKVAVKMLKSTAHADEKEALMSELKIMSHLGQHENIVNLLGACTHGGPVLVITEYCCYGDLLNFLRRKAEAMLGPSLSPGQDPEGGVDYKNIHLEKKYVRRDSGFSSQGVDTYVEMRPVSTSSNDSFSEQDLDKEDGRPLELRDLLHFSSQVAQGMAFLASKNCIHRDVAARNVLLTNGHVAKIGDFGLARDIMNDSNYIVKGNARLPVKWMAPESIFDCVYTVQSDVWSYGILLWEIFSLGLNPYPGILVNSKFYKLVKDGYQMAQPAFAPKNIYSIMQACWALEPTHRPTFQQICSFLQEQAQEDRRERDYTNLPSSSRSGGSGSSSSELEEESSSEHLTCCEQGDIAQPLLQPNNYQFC
UniProt P41240: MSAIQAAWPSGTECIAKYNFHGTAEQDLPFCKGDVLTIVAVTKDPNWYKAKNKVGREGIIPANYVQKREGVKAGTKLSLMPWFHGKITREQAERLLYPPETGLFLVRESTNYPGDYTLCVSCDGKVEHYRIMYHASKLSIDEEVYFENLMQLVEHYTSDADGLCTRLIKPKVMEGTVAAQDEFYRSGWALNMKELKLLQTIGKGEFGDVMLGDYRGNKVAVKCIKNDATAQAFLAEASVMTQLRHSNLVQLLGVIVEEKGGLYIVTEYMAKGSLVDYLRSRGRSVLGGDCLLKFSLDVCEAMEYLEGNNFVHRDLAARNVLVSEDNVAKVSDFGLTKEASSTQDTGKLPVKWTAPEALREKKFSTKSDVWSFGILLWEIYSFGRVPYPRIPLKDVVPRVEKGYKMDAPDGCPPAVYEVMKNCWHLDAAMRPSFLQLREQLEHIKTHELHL
UniProt P48729: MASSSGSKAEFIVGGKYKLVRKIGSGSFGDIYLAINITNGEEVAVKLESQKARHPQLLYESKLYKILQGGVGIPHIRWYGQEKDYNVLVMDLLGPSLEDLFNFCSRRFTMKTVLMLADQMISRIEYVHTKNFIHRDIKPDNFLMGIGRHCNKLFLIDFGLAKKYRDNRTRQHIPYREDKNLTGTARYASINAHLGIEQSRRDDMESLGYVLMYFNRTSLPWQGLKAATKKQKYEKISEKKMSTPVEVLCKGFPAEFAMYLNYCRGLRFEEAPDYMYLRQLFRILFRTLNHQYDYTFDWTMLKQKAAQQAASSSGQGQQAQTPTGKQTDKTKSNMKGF
UniProt P48730: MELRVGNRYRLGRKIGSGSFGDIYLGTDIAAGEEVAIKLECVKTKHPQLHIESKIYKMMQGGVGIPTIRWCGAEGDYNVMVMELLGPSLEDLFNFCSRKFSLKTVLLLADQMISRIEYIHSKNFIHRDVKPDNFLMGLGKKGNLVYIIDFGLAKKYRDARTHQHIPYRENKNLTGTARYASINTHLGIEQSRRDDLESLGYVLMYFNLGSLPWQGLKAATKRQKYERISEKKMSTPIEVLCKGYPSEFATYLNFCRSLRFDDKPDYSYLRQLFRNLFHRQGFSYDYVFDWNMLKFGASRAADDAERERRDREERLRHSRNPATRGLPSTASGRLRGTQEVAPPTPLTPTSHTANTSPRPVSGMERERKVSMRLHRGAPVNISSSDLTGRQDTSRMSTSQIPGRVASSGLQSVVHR
UniProt Q08345: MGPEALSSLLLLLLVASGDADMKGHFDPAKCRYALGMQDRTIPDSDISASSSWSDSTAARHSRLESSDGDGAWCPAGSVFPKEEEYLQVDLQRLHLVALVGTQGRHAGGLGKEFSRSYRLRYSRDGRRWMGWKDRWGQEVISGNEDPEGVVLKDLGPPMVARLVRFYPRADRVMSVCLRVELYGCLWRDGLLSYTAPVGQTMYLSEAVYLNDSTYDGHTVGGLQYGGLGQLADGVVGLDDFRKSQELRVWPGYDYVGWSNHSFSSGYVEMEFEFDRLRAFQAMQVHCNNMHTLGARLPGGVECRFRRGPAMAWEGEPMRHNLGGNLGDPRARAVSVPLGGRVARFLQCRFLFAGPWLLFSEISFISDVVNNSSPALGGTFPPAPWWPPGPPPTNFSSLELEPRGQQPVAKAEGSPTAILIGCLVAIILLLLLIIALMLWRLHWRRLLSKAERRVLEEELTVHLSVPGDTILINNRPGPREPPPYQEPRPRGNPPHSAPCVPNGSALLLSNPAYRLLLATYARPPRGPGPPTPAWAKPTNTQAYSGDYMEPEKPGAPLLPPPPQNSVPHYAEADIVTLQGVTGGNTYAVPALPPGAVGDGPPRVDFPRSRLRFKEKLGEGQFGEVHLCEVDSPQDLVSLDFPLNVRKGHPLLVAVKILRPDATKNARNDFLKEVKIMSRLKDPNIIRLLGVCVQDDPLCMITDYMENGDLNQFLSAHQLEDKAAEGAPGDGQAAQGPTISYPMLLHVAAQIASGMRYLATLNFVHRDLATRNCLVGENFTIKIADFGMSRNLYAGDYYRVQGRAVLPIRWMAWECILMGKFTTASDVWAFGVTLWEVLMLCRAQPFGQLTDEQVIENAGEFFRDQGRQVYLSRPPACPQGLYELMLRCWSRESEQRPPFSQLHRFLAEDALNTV
UniProt Q9Y463, whole entry, looked up: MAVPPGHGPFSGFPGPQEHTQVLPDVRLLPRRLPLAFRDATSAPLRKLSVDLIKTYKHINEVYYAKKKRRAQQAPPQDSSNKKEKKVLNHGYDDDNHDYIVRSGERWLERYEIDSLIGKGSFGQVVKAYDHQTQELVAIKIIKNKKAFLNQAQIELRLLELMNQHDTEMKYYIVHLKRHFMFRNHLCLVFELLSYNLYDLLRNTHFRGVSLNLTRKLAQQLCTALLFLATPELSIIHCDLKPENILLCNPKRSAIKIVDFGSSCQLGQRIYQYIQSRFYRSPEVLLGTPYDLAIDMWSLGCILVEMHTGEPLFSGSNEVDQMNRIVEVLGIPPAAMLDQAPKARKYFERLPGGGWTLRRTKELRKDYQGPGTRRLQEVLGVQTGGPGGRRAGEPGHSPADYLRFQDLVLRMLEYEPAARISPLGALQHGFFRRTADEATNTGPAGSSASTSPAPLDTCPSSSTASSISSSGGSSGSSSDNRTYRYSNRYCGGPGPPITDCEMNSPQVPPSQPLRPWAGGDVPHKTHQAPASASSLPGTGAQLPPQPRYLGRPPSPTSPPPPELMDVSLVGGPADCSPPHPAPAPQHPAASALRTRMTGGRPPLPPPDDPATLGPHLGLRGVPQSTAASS
UniProt Q92630: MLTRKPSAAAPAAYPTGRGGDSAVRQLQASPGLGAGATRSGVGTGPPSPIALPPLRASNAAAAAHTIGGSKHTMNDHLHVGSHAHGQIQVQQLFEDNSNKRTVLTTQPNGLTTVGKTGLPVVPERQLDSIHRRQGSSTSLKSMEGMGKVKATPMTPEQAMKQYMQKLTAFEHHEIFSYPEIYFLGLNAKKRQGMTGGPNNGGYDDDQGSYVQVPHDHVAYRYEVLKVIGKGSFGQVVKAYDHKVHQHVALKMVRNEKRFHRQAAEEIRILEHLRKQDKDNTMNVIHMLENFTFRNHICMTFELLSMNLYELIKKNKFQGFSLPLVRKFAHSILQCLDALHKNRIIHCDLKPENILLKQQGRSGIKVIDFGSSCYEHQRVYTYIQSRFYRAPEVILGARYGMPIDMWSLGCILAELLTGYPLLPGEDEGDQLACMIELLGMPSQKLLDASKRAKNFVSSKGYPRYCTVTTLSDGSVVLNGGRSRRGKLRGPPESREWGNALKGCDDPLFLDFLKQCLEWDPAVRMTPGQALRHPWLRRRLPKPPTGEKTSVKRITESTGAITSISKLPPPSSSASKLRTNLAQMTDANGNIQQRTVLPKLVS
UniProt Q13555: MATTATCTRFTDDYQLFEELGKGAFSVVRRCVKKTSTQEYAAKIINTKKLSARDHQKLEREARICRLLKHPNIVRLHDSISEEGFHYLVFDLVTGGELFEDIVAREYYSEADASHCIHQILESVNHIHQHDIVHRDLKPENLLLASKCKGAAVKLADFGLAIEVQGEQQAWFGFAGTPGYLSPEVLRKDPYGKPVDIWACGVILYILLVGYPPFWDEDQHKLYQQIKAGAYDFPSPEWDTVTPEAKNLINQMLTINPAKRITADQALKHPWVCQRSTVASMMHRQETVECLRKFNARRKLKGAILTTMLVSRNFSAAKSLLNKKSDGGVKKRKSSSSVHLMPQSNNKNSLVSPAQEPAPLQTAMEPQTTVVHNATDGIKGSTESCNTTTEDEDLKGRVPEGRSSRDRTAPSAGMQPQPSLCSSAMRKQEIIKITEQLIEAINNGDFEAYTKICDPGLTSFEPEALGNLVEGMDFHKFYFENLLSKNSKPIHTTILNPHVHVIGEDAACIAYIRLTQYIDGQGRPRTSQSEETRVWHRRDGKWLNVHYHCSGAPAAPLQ

How the values were obtained:
Assay in all cases: number of time points (of 5) at which kinase-Nluc abundance scored as decreased, DMSO-normalised (count); higher = more persistent destabilization
Details in all cases: K562; 2-18 h
[1] = target: CAMK2A (UniProt Q9UQM7)
[2] = target: CDK10 (UniProt Q15131)
[3] = target: CDK2 (UniProt P24941)
[4] = target: CDK3 (UniProt Q00526)
[5] = target: CDK5 (UniProt Q00535)
[6] = target: CDK6 (UniProt Q00534)
[7] = target: CHEK2 (UniProt O96017)
[8] = target: CSF1R (UniProt P07333)
[9] = target: CSK (UniProt P41240)
[10] = target: CSNK1A1 (UniProt P48729)
[11] = target: CSNK1D (UniProt P48730)
[12] = target: DDR1 (UniProt Q08345)
[13] = target: DYRK1B (UniProt Q9Y463)
[14] = target: DYRK2 (UniProt Q92630)
[15] = target: EGFR (UniProt P00533)
[16] = target: EGFR_G719S (UniProt P00533)
[17] = target: EGFR_G719S_T790M (UniProt P00533)
[18] = target: EGFR_L718V (UniProt P00533)
[19] = target: EGFR_L858R (UniProt P00533)
[20] = target: CAMK2G (UniProt Q13555)

Compound | number of time points [1] | number of time points [2] | number of time points [3] | number of time points [4] | number of time points [5] | number of time points [6] | number of time points [7] | number of time points [8] | number of time points [9] | number of time points [10] | number of time points [11] | number of time points [12] | number of time points [13] | number of time points [14] | number of time points [15] | number of time points [16] | number of time points [17] | number of time points [18] | number of time points [19] | number of time points [20]
Cc1[nH]c(/C=C2\C(=O)Nc3ccc(S(=O)(=O)Cc4c(Cl)cccc4Cl)cc32)c(C)c1C(=O)N1CCC[C@@H]1CN1CCCC1 (2.5 µM) | 0 | 0 | 0 | 0 | 0 | 0 | 0 | 0 | 0 | 0 | 0 | 0 | 0 | 0 | 0 | 0 | 0 | 0 | 0 | –
COc1cc2ncnc(Nc3cccc(Cl)c3F)c2cc1OC(=O)N1CCN(C)C[C@H]1C [Zorifertinib] (10 µM) | 0 | 0 | 0 | 0 | – | 0 | 0 | 0 | 0 | 0 | 0 | 0 | 0 | 0 | 0 | 0 | 0 | 0 | 0 | 0
CC1(C)CC=C(c2nc(C3CC(C)(C)OC(C)(C)C3)ccc2NC(=O)c2nc(C#N)c[nH]2)CC1 [Edicotinib] (2.5 µM) | 0 | 0 | 0 | 0 | 0 | 0 | 0 | – | 0 | 0 | 0 | 0 | 0 | 0 | 0 | 0 | 0 | 0 | 0 | 0
Brc1c(Br)c(Br)c2n[nH]nc2c1Br (10 µM) | 0 | 0 | – | 0 | 0 | 0 | 0 | 0 | 0 | 0 | 0 | 0 | 0 | 0 | 0 | 0 | 0 | 0 | 0 | 0
COc1ccc2c(C(=O)Nc3ccc(NC(=O)c4nn(C5CCN(C(=O)CC(C)(C)C#N)CC5)c5ccc(F)cc45)cc3Cl)cnn2c1 [Src Inhibitor 3] (2.5 µM) | 1 | 2 | 0 | 0 | 0 | 0 | 2 | 1 | – | 1 | 2 | 2 | 1 | 3 | 2 | 1 | 1 | 1 | 1 | 2
O=C1c2ccccc2-c2n[nH]c3cccc1c23 (10 µM) | 0 | 0 | 0 | 0 | – | 0 | 0 | 0 | 0 | 0 | 0 | 0 | 0 | 0 | – | – | – | – | – | 0
O=c1oc2ccccc2c(O)c1Cc1c(O)c2ccccc2oc1=O [Dicoumarol] (10 µM) | 0 | 0 | 0 | 0 | 0 | 0 | 0 | – | 0 | 0 | 0 | 0 | 0 | 0 | – | – | – | – | – | 0
NC(=O)c1ccc(-c2nc(-c3ccccn3)c(-c3ccc4c(c3)OCO4)[nH]2)cc1 (10 µM) | 0 | 0 | – | 0 | 0 | 0 | 0 | 0 | 0 | 0 | 0 | 0 | 0 | 0 | 0 | 0 | 0 | 0 | 0 | 0
CN1CCN(c2ccc(C(=O)Nc3n[nH]c4ccc(Cc5cc(F)cc(F)c5)cc34)c(NC3CCOCC3)c2)CC1 [Entrectinib] (2.5 µM) | 0 | 0 | 0 | 0 | – | 0 | 0 | 0 | 0 | – | 0 | 0 | 0 | 0 | 0 | 0 | 0 | 0 | 0 | 0
C[C@H](CN(C)C)Oc1nc(Nc2cc3cccc(Cl)c3cn2)cnc1C#N (10 µM) | 0 | 0 | 0 | 0 | 0 | 0 | – | 0 | 0 | 0 | 0 | 0 | 0 | 0 | 0 | 0 | 0 | 0 | 0 | 0
Cc1ccc(F)c(NC(=O)Nc2ccc(-c3cccc4[nH]nc(N)c34)cc2)c1 [Linifanib] (2.5 µM) | 0 | 5 | 0 | 0 | 0 | 0 | 0 | – | 0 | 0 | 0 | 5 | 0 | 0 | 0 | 0 | 0 | 0 | 0 | 0
Cc1nc(-c2cnc(NC(C)C)n(C)c2=O)ccc1Oc1ccnc(-c2cnn(C)c2)c1 (2.5 µM) | 0 | 0 | 0 | 0 | 0 | 0 | 0 | – | 0 | 0 | 0 | 0 | 0 | 1 | 0 | 0 | 0 | 0 | 0 | 0
Nc1nc(N)c(N=O)c(OCC2CCCCC2)n1 (10 µM) | 0 | 0 | – | 0 | 0 | 0 | 0 | 0 | 0 | 0 | 0 | 0 | 0 | 0 | 0 | 0 | 0 | 0 | 0 | 0
Nc1ncnc2c1c(-c1cccc(OCc3ccccc3)c1)cn2C1CC(CN2CCCC2)C1 (centres undefined) (2.5 µM) | 0 | 0 | 0 | 0 | – | 0 | 0 | 0 | 0 | 0 | 0 | 0 | 0 | 0 | – | – | – | – | – | 0
COc1ccc(F)c(F)c1C(=O)c1cnc(NC2CCN(S(C)(=O)=O)CC2)nc1N (2.5 µM) | 0 | 0 | – | 2 | 2 | 0 | 3 | 3 | 0 | 3 | 0 | 2 | 1 | 4 | 2 | 3 | 2 | 3 | 2 | 0
CC(=O)N1CCN(c2ccc(OCC3COC(Cn4ccnc4)(c4ccc(Cl)cc4Cl)O3)cc2)CC1 (centres undefined) [Ketoconazole] (2.5 µM) | 0 | 0 | 0 | 0 | 0 | 0 | 0 | – | 0 | 0 | 0 | 0 | 0 | 0 | 0 | 0 | 0 | 0 | 0 | 0
Cc1cccc(Cn2nc(C3CC3)c3c(NC(=O)c4cnc5cc(OCCN6CCN(C)CC6)ccn45)cccc32)n1 (10 µM) | 0 | 0 | 0 | 0 | 0 | 0 | 0 | – | 0 | 0 | 0 | 0 | 0 | 0 | 0 | 0 | 0 | 0 | 0 | 0
CNC(=O)c1cccc2cc(Oc3ccnc4cc(OCC5(N)CC5)c(OC)cc34)ccc12 [Lucitanib] (10 µM) | 0 | 0 | – | 0 | 0 | 0 | 0 | 0 | 0 | 0 | 0 | 1 | 0 | 0 | 0 | 0 | 0 | 0 | 0 | 0
CCN(CCCOc1ccc2c(Nc3cc(CC(=O)Nc4cccc(F)c4)[nH]n3)ncnc2c1)CCOP(=O)(O)O [Barasertib] (10 µM) | 0 | 0 | 0 | 0 | – | 0 | 0 | 0 | 0 | 0 | 0 | 0 | 0 | 0 | 0 | 0 | 0 | 0 | 0 | 0
COc1c(Cl)cc2c([nH]c3cnccc32)c1NC(=O)c1cccnc1C (10 µM) | 0 | 0 | – | 0 | 0 | 0 | 0 | 0 | 0 | 0 | 0 | 0 | 0 | 0 | 0 | 0 | 0 | 0 | 0 | 0

2 entries drawn at random from the list so far:
Compound | number of time points [1] | number of time points [2] | number of time points [3] | number of time points [4] | number of time points [5] | number of time points [6] | number of time points [7] | number of time points [8] | number of time points [9] | number of time points [10] | number of time points [11] | number of time points [12] | number of time points [13] | number of time points [14] | number of time points [15] | number of time points [16] | number of time points [17] | number of time points [18] | number of time points [19] | number of time points [20]
COc1cc2ncnc(Nc3cccc(Cl)c3F)c2cc1OC(=O)N1CCN(C)C[C@H]1C [Zorifertinib] (10 µM) | 0 | 0 | 0 | 0 | – | 0 | 0 | 0 | 0 | 0 | 0 | 0 | 0 | 0 | 0 | 0 | 0 | 0 | 0 | 0
Cc1cccc(Cn2nc(C3CC3)c3c(NC(=O)c4cnc5cc(OCCN6CCN(C)CC6)ccn45)cccc32)n1 (10 µM) | 0 | 0 | 0 | 0 | 0 | 0 | 0 | – | 0 | 0 | 0 | 0 | 0 | 0 | 0 | 0 | 0 | 0 | 0 | 0
